Test results as given in article PMC10185561, “RagD auto-activating mutations impair MiT/TFE activity in kidney tubulopathy and cardiomyopathy syndrome” (Nature Communications, 2023).
Results are given in words; binding and its absence hold for the method and conditions named. In cells and extracts the contact can be indirect. Some binding calls cover weakened binding; strength is not graded here.

Chains of the proteins cited; added tags and fusions are not shown. Lines headed by an entry give the natural chain unless they say otherwise; changes in a name come on top. A line that says so, or that is headed by a name, gives the form on record, which may keep a tag or linker.
UniProt P19484: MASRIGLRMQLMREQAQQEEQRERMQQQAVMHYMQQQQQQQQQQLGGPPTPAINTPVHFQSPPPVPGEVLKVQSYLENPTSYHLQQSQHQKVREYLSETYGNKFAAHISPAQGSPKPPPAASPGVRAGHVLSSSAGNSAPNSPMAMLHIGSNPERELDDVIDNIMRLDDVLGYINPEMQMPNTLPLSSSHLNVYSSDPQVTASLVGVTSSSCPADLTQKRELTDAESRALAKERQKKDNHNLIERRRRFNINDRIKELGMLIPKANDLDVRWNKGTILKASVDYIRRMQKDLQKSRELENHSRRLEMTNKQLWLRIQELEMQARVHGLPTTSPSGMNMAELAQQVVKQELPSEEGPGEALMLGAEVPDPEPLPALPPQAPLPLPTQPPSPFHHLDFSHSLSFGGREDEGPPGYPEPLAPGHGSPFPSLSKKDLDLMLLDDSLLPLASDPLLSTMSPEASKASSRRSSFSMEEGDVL
HA-GST-RagD I221K (Q9NQL2-1, form named): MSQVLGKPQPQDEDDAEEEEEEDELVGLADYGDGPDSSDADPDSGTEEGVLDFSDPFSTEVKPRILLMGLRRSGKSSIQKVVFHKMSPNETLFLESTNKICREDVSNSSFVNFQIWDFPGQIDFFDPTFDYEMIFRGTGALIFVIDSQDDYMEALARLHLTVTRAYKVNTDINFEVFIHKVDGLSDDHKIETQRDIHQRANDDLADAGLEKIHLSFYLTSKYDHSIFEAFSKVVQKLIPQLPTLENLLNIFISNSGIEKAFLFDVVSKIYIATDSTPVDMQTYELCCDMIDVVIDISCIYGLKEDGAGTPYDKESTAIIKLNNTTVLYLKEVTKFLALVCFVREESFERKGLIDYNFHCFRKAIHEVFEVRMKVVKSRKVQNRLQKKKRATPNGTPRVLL
HA-GST-RagD P88L (Q9NQL2-1, form named): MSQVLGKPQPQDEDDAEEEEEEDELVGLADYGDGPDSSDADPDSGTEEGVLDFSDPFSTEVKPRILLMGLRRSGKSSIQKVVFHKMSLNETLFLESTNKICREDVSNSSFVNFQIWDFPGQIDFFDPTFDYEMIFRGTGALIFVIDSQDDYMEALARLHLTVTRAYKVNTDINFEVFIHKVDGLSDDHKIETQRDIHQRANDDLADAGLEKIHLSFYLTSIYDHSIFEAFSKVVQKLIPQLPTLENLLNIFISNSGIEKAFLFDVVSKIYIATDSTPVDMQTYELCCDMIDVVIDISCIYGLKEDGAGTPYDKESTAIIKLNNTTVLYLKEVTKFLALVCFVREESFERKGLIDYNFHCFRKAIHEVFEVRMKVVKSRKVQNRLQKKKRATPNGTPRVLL
HA-GST-RagD P119L (Q9NQL2-1, form named): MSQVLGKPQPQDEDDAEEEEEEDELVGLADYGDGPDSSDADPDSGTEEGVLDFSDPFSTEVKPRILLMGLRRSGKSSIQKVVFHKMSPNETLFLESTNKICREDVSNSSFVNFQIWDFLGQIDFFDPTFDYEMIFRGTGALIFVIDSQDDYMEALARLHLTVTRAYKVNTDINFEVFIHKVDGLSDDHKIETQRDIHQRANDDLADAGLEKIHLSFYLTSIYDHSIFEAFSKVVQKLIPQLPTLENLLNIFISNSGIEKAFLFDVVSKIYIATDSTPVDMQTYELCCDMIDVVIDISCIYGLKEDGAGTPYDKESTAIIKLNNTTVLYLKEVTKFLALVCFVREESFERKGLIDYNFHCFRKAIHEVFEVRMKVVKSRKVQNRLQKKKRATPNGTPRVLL
HA-GST-RagD S76L (Q9NQL2-1, form named): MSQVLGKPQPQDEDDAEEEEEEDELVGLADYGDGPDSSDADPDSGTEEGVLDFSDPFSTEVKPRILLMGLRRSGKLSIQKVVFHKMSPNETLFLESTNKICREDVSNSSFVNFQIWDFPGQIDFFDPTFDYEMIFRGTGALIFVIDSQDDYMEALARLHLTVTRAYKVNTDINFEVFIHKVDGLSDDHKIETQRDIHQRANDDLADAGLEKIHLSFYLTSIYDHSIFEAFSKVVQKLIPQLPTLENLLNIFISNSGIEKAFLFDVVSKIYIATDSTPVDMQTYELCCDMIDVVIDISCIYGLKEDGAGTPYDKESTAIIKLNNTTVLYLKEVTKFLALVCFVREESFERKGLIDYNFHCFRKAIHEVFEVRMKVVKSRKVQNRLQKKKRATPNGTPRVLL
HA-GST-RagD T97P (Q9NQL2-1, form named): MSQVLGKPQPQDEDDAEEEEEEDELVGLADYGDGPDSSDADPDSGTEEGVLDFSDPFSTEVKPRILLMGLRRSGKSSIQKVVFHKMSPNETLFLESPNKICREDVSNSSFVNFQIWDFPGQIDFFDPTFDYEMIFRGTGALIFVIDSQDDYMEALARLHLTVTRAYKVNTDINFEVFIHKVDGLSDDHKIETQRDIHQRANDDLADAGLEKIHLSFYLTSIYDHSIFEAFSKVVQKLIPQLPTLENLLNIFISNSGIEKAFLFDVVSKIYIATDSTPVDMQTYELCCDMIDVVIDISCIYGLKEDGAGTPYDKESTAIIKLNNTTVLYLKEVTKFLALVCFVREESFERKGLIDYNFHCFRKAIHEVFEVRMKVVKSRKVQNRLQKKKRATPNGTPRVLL

Molecular target: FLAG-TFEB (UniProt P19484)
Assay: co-IP; HeLa FLCN KO cells transfected with TFEB-FLAG (bait), RagD-HA-GST WT or mutants and an equimolar amount of RagA-HA-GST; NP-40 lysis buffer (50 mM Tris-HCl pH 7.5, 100 mM NaCl, 0.5% NP-40); FLAG M2 beads, 4 °C, 2 h; immunoblot

binding, binds:
HA-GST-RagD I221K (from UniProt Q9NQL2-1 1-400)
HA-GST-RagD P88L (from UniProt Q9NQL2-1 1-400)
HA-GST-RagD P119L (from UniProt Q9NQL2-1 1-400)
HA-GST-RagD S76L (from UniProt Q9NQL2-1 1-400)
HA-GST-RagD T97P (from UniProt Q9NQL2-1 1-400)
